Entries after “also recorded” stand apart in the source; their conditions may differ. For at least one compound, name, drawing or mass did not settle the structure.
Key:
[1] = tested on: dorsal root ganglion (DRG) neuron; settings: US 2006-0211744 A1; cited from earlier work
[2] = tested on: ganglion cell layer cells (GCL cells); assay: Whole retina explant culture (axotomy culture model), DAPI nuclei; type: cell-based, mouse; settings: axotomized retinas in culture, 5 days
Text: Mice were euthanized, eyes enucleated and placed immediately into ice-cold HBSS. Retinas were dissected from the eyes in HBSS on ice, flat-mounted with the ganglion cell layer up on a cell culture insert (Millipore), and submerged in tissue culture media containing Neurobasal-A, 1% penicillin-streptomycin (10000 U/mL), 1% glutamine (100×), 1% N-2 (100×) and 1% B-27 (50×) (all ThermoFisher Scientific).
For drug treated retinas tissue culture media was made as above and supplemented with one of the following compounds (all Sigma unless otherwise): β-NAD, NAM (PanReac AppliChem), β-NMN. Retinas were incubated in 6-well plates at 37° C. and 4% CO2 for 5 days before being fixed in 4% PFA and stained with DAPI. (For untreated “Day 0” controls, retinas were dissected and placed straight into 4% PFA.) Retinas were imaged on a Zeiss AxioObserver.

[3] = tested on: retinal ganglion cells (RGCs); assay: RGC soma loss (RBPMS staining) in D2 glaucoma; type: in vivo, mouse; settings: D2 mice; NAM 550 mg/kg/day or pyruvate 500 mg/kg/day
Description: For immunofluorescence staining, mice were euthanized by cervical dislocation, their eyes enucleated and placed in 4% PFA ON. Retinas were dissected and flat-mounted onto slides, permeabilized with 0.1% Triton-X for 15 mins, blocked with 2% BSA in PBS and stained ON at RT in primary antibody (see below for list of antibodies).
After primary antibody incubation, retinas were washed 5 times in PBS, stained for 4 hrs at RT with secondary antibody. Slides were then washed a further 5 times with PBS, stained with DAPI for 15 mins, mounted with fluoromount, coverslipped and sealed with nail-polish.
For retinal sections, eyes were cryoprotected in 30% sucrose ON, frozen in OCT and cryosectioned at 18 μm. Slides were warmed to room temperature and the procedure above was followed. Retinas were imaged on a Zeiss AxioObserver for low resolution counts. Retinal sections were imaged on a Leica SP8 far higher resolution images.

[4] = tested on: D2 retinas; assay: Retinal NFL and IPL thinning (Nissl staining) in D2 mice; type: in vivo, mouse; settings: NAM or pyruvate in drinking water
Description: For Nissl staining, frozen sections were warmed to room temperature, placed in 1:1 alcohol:chloroform ON, and rehydrated through serial alcohol gradient. Slides were washed once in distilled water and stained for 15 mins in 0.1% cresyl violet in distilled water before being differentiated in 95% alcohol, dehydrated in 100% alcohol and cleared in xylene. Slides were prepared as above. Nissl stained retinal sections were imaged using a Nikon Eclipse E200.

[5] = tested on: D2 retinas; assay: Metabolic profiling of retina: pyruvate levels; type: in vivo, mouse; settings: D2 mice, 500 mg/kg/d pyruvate in drinking water from 6-month; 500 mg/kg/day
[6] = tested on: DBA/2J (D2) mice; assay: Pattern electroretinography (PERG) in D2 mice; type: in vivo, mouse; settings: NAM^Lo 550 mg/kg/day or pyruvate 500 mg/kg/day
Description: PERG was recorded subcutaneously from the snout as previously reported. Briefly: patterned stimuli (gratings of 0.05 cycles/degree, 100% contrast) generated on LED panels were presented at each eye separately with slight different frequencies around 1 Hz. Waveforms were retrieved using an asynchronous averaging method (Chou et al., Invest Ophthalmol Vis Sci 55, 2469-2475, 2014).
Mice were anaesthetized using ketamine/xylazine (Savinova et al., BMC Genet 2, 12, 2001) and body temperature maintained at 37° C. on a feedback-controlled heated stage monitored by rectal thermometer.

SMILES	axon degeneration of transected DRG neurons [1]	protective effect in retina tissue culture [2]	RGC soma loss (RBPMS) [3]	retinal NFL and IPL thinning (Nissl) [4]	pyruvate levels in retina [5]	visual function, PERG amplitude [6]
NC(=O)c1ccc[n+]([C@@H]2O[C@H](COP(=O)([O-])OP(=O)(O)OC[C@H]3O[C@@H](n4cnc5c(N)ncnc54)[C@H](O)[C@@H]3O)[C@@H](O)[C@H]2O)c1 [NAD, nicotinamide adenine dinucleotide]	protecting effect	significant protective effects				
CC(=O)C(=O)O [pyruvate]			resistant; also recorded: protects; also recorded: prevent RGC soma loss	protects	increased; also recorded: restored	resistant; also recorded: protect PERG even in aged mice
